{"source": "PubChem BioAssay AID1259280 | Sanger Institute, 2017", "test": "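Essential kinases and drug-combination synergies in SNU407 cells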 (primary screen)", "cells": "human SNU407 colorectal cancer cells", "reagent": "siRNA pool against human genes", "treatment": "anchor drugs BYL719 at 1 µM, cetuximab at 5 µg/ml or trametinib at 10 nM, or DMSO vehicle alone; exposure time not given", "read-out": "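Viability relative to non-targeting control siRNA, expressed as robust z-score, plus a synergy score for each of the three anchor drugs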", "reading the numbers": "viability z-score, no drug and viability vs control, no drug: higher = more cells survive the knock-down", "units": "viability vs control, no drug in fraction of control", "active means": "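a knock-down counts as essential when its robust viability z-score without drug is below -3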", "meaning of the calls": "active = essential (knock-down alone kills cells); inactive = no change without drug", "note": "This is an unselected part of 794 reagents. 12 of all reagents (1.5%) count as active. 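Calls cover knock-down without drug only; synergy scores stand apart, values above 0.15 being treated as synergy.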 Entries without a mark were called inactive. Viability is capped at 1. Further read-outs or replicates are left out here. Not given: the amount of reagent, the time to read-out."}
{"Gene": "MYLK (GeneID 4638)", "viability z-score, no drug": -0.794, "viability vs control, no drug": 0.87}
{"Gene": "PDIK1L (GeneID 149420)", "viability z-score, no drug": -0.0756, "viability vs control, no drug": 0.925}
{"Gene": "ERBB2 (GeneID 2064)", "viability z-score, no drug": 0.732, "viability vs control, no drug": 0.987}
{"Gene": "SMAD4 (GeneID 4089)", "viability z-score, no drug": -0.411, "viability vs control, no drug": 0.9}
{"Gene": "CKS2 (GeneID 1164)", "viability z-score, no drug": 0.63, "viability vs control, no drug": 0.979}
{"Gene": "CDK12 (GeneID 51755)", "viability z-score, no drug": 0.385, "viability vs control, no drug": 0.961}
{"Gene": "DYRK2 (GeneID 8445)", "viability z-score, no drug": -1.79, "viability vs control, no drug": 0.794}
{"Gene": "ACVR1 (GeneID 90)", "viability z-score, no drug": 0.901, "viability vs control, no drug": 1}
{"Gene": "STK33 (GeneID 65975)", "viability z-score, no drug": 0.774, "viability vs control, no drug": 0.99}
{"Gene": "PRKCZ (GeneID 5590)", "viability z-score, no drug": -1.23, "viability vs control, no drug": 0.837}
{"Gene": "SIK3 (GeneID 23387)", "viability z-score, no drug": 0.0885, "viability vs control, no drug": 0.938}

Continued, starting with the last 2 of the part before.
{"Gene": "PRKCZ (GeneID 5590)", "viability z-score, no drug": -1.23, "viability vs control, no drug": 0.837}
{"Gene": "SIK3 (GeneID 23387)", "viability z-score, no drug": 0.0885, "viability vs control, no drug": 0.938}
{"Gene": "PRPS2 (GeneID 5634)", "viability z-score, no drug": -0.771, "viability vs control, no drug": 0.872}
{"Gene": "INSR (GeneID 3643)", "viability z-score, no drug": 0.531, "viability vs control, no drug": 0.972}
{"Gene": "EPHB4 (GeneID 2050)", "viability z-score, no drug": -1.77, "viability vs control, no drug": 0.796}
{"Gene": "RIPK3 (GeneID 11035)", "viability z-score, no drug": 0.901, "viability vs control, no drug": 1}
{"Gene": "AGK (GeneID 55750)", "viability z-score, no drug": -1.79, "viability vs control, no drug": 0.795}
{"Gene": "DGKK (GeneID 139189)", "viability z-score, no drug": -0.739, "viability vs control, no drug": 0.875}
{"Gene": "TEK (GeneID 7010)", "viability z-score, no drug": -0.685, "viability vs control, no drug": 0.879}
{"Gene": "NEK3 (GeneID 4752)", "viability z-score, no drug": 0.755, "viability vs control, no drug": 0.989}
